Data taken from patent US11603373B2, “TDO2 and IDO1 inhibitors” (Genentech, Inc., priority 2017, dated 2023).

Chains of the proteins cited; added tags and fusions are not shown.
UniProt P14902, whole entry: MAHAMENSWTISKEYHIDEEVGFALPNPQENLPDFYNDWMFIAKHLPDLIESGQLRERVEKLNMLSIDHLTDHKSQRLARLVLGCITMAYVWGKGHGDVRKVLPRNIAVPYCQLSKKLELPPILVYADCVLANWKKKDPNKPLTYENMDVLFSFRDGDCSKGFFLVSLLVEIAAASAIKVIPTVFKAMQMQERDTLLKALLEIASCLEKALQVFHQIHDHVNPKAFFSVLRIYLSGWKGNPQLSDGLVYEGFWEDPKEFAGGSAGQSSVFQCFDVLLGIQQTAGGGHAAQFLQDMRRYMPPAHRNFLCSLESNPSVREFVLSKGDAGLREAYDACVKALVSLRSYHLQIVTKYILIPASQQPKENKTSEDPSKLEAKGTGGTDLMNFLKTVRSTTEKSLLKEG
UniProt P48775, whole entry: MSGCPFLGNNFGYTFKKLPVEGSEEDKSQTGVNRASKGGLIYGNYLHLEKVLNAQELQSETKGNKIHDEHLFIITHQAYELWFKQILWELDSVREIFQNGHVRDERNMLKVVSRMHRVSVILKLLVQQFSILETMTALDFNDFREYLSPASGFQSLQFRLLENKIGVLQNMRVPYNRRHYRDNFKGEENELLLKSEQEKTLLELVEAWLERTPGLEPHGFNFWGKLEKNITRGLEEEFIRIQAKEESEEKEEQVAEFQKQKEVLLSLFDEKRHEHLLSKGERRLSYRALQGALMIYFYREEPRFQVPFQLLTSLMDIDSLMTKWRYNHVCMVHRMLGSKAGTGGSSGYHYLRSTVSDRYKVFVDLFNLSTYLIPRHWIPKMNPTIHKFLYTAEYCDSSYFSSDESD

Tests used:
[1] = biological target: IDO1 (A172+IFNg cells, high IDO expressing cells) (Homo sapiens, UniProt P14902); experiment: NFK GreenScreen cell assay, inhibition of IDO in A172+IFNg cells; conditions: read-out: IDO cell Fluor EC50
Excerpt: (§1) The NFK GreenScreen™ (NTRC, Netherlands) uses a specific chemical probe that binds to N-Formylkynurenine (NFK), a product of tryptophan catabolism facilitated by IDO or TDO and causes fluorescence at 510 nm when excited at 410 nm. The assay is used to assess compound inhibition of TDO and IDO leading to decreased levels of NFK in SW48 cells (high TDO expressing cells) and to determine whether compounds are selective against A172+IFNg cells (high IDO expressing cells) or are dual inhibitors in cells. The assay is multiplexed with Cell Titer-Glo® (Promega) to determine if compounds are cytotoxic. Briefly, SW48 or A172 cells are harvested in growth media, RPMI 1640 with 10% FBS, 2 mM L-glutamine, and 1× pen/strep. Cells are re-suspended in assay media, tryptophan-free RPMI 1640 supplemented with 2% dialyzed FBS, 2 mM L-glutamine, and 1× pen/strep. Cells are counted on a Vi-Cell (Beckman Coulter). SW48 cells are diluted to 1×10^6 cells/ml in assay media. […] Plates are sealed and incubated at 37° C., 5% CO2 for 5 hours, then read on a PHERAstar® (BMG labtech). Data are analyzed by normalizing to DMSO and high inhibitor controls. After the plates have been read for NFK green, 25 ul of Cell Titer-Glo® (Promega) are added to each well, incubated for 15 minutes at room temperature, and read on the Envision (Perkin Elmer). Cell Titer-Glo data are analyzed by normalizing to the DMSO controls. […]

[2] = biological target: TDO2 (SW48 cells, high TDO expressing cells) (Homo sapiens, UniProt P48775); experiment: NFK GreenScreen cell assay, inhibition of TDO in SW48 cells; conditions: read-out: TDO2 Cell Fluor EC50
Excerpt: as §1

In the case of `O=C(C1CC1)N1CCC2(CC[C@@H]([C@H]3c4ccccc4-c4cncn43)[C@H]2O)CC1` (single isomer, unassigned), the EC50 [1] is reported as 140 nM and the EC50 [2] is reported as 100 nM.

The match of structure and compound is tentative.
